This note sets out measurements from PMC6271009, “Design and Synthesis of Thiazolo[5,4-f]quinazolines as DYRK1A Inhibitors, Part II” (Molecules, 2014).

Amino acid sequences for entries named in this document (tags omitted).
UniProt Q9Y463, whole entry: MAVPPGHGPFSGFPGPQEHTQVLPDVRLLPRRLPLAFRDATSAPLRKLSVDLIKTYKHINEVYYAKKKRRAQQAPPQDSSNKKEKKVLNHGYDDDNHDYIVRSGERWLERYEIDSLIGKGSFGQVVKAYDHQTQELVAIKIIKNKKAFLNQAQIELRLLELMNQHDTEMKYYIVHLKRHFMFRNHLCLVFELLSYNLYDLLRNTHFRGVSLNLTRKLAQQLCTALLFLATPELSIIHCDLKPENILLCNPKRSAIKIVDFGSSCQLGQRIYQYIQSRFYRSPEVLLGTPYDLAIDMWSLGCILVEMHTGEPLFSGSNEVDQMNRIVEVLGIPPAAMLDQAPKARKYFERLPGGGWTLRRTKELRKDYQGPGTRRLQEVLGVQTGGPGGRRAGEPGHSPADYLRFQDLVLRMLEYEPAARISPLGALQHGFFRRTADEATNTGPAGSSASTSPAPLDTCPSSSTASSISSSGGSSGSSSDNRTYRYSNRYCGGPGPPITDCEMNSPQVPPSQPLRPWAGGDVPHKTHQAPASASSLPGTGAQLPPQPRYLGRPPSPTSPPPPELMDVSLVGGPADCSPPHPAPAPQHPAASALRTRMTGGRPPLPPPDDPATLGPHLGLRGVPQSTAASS

The target in this experiment is T1, DYRK1B (Homo sapiens, UniProt Q9Y463).
T1 construct: Purified recombinant kinase was incubated with serial 3-fold dilutions of test compounds; purchased Reaction Biology Corporation
As to the kind of experiment: DYRK1B kinase assay, Reaction Biology Corporation HotSpot technology (33P ATP). It counts as biochemical. As to conditions: purified recombinant kinase, 10 µM ATP, 120 min, room temperature.

For `COc1ccc2c(c1)[nH]c1c(C)nccc12` [harmine, reference compound], the IC50 amounted to 27.9 nM.
